In the data set the target is T1, alpha-amylase (in human saliva) (Homo sapiens) (UniProt P0DUB6).
T1 sequence (looked up, limits assumed): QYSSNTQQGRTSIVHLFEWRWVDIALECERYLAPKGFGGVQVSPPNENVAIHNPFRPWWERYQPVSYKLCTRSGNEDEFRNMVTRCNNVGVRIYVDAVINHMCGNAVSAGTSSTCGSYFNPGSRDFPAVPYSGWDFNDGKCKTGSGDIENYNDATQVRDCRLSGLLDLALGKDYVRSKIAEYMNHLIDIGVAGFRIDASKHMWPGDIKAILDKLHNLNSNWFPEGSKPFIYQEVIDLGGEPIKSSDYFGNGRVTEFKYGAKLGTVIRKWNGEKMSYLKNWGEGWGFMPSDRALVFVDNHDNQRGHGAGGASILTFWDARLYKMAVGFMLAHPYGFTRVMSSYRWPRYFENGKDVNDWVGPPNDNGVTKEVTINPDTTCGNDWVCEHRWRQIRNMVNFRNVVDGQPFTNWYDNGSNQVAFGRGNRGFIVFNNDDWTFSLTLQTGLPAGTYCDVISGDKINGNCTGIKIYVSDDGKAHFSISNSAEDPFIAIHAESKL
Put plainly: pull-down. The following applies: 90% saliva; primer-bound bead control; protein in an extract; label: 5' biotin; single-stranded DNA; variant of biotin-AML1243KR8m1 on SA beads.

We go through one sequence from patent US20180327746, “Alpha-AMYLASE-BINDING NUCLEIC ACID MOLECULE AND USE THEREOF” (NEC Solution Innovators, Ltd., published 2018).

The exact form of at least one protein or probe is not confirmed. At least one result comes from cells or an extract, where the contact may be indirect. Negatives hold for the conditions tested. Where a protein sequence is shown, tags need not be part of it.

Turning to “GGATACCTTAACGCCGCCTATTG [biotinylated primer (5' region)]”, the binding result is listed as “no binding”.
